# Source: the supplement of paper PMC8728848
# Some of the results follow.
# What was measured:
# Assay in all cases: glycan array binding signal (z-score within array); higher = stronger binding
# Details in all cases: glycan notation: IUPAC condensed, linker removed
# [1] = target: GlcNAc(b1-2)[GlcNAc(b1-4)]Man(a1-3)[GlcNAc(b1-4)][GlcNAc(b1-2)[GlcNAc(b1-6)]Man(a1-6)]Man(b1-4)GlcNAc(b1-4)GlcNAc
# Procedure, shortened: (§1)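 The binding signal is a Z-score computed within each array. Data were drawn from 3228 arrays in the Consortium for Functional Glycomics database, restricted to those with a known protein sequence. Scores were averaged over arrays of the same protein sequence at different concentrations or buffers, and over linkers, and negative values can be taken as non-binding.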
# [2] = target: GlcNAc(b1-2)[GlcNAc(b1-4)]Man(a1-3)[GlcNAc(b1-4)][GlcNAc(b1-2)[GlcNAc(b1-6)]Man(a1-6)]Man(b1-4)GlcNAc(b1-4)[Fuc(a1-6)]GlcNAc
# Procedure, shortened: as §1
# [3] = target: GlcNAc(b1-2)[GlcNAc(b1-6)]Man(a1-6)[GlcNAc(b1-2)Man(a1-3)]Man(b1-4)GlcNAc(b1-4)GlcNAc
# Procedure, shortened: as §1
# [4] = target: GlcNAc(b1-2)[GlcNAc(b1-6)]Man(a1-6)[GlcNAc(b1-2)Man(a1-3)]Man(b1-4)GlcNAc(b1-4)[Fuc(a1-6)]GlcNAc
# Procedure, shortened: as §1
# [5] = target: GlcNAc(b1-2)[GlcNAc(b1-6)]Man(a1-6)[GlcNAc(b1-4)][GlcNAc(b1-2)Man(a1-3)]Man(b1-4)GlcNAc(b1-4)GlcNAc
# Procedure, shortened: as §1
# [6] = target: GlcNAc(b1-3)Fuc
# Procedure, shortened: as §1
# [7] = target: GlcNAc(b1-3)Gal
# Procedure, shortened: as §1
# [8] = target: GlcNAc(b1-3)Gal(b1-3)GalNAc
# Procedure, shortened: as §1
# [9] = target: GlcNAc(b1-3)Gal(b1-4)Glc
# Procedure, shortened: as §1
# [10] = target: GlcNAc(b1-3)Gal(b1-4)GlcNAc
# Procedure, shortened: as §1
# [11] = target: GlcNAc(b1-3)Gal(b1-4)GlcNAc(b1-2)Man(a1-3)[GlcNAc(b1-3)Gal(b1-4)GlcNAc(b1-2)Man(a1-6)]Man(b1-4)GlcNAc(b1-4)GlcNAc
# Procedure, shortened: as §1
# [12] = target: GlcNAc(b1-3)Gal(b1-4)GlcNAc(b1-2)Man(a1-3)[GlcNAc(b1-3)Gal(b1-4)GlcNAc(b1-2)Man(a1-6)]Man(b1-4)GlcNAc(b1-4)[Fuc(a1-6)]GlcNAc
# Procedure, shortened: as §1
# [13] = target: GlcNAc(b1-3)Gal(b1-4)GlcNAc(b1-2)[GlcNAc(b1-3)Gal(b1-4)GlcNAc(b1-6)]Man(a1-6)[GlcNAc(b1-3)Gal(b1-4)GlcNAc(b1-2)Man(a1-3)]Man(b1-4)GlcNAc(b1-4)GlcNAc
# Procedure, shortened: as §1
# [14] = target: GlcNAc(b1-3)Gal(b1-4)GlcNAc(b1-3)Gal(b1-4)GlcNAc
# Procedure, shortened: as §1
# [15] = target: GlcNAc(b1-3)Gal(b1-4)GlcNAc(b1-3)Gal(b1-4)GlcNAc(b1-2)Man(a1-3)[GlcNAc(b1-3)Gal(b1-4)GlcNAc(b1-3)Gal(b1-4)GlcNAc(b1-2)Man(a1-6)]Man(b1-4)GlcNAc(b1-4)GlcNAc
# Procedure, shortened: as §1
# [16] = target: GlcNAc(b1-3)Gal(b1-4)GlcNAc(b1-3)Gal(b1-4)GlcNAc(b1-2)Man(a1-3)[GlcNAc(b1-3)Gal(b1-4)GlcNAc(b1-3)Gal(b1-4)GlcNAc(b1-2)Man(a1-6)]Man(b1-4)GlcNAc(b1-4)[Fuc(a1-6)]GlcNAc
# Procedure, shortened: as §1
# [17] = target: GlcNAc(b1-3)Gal(b1-4)GlcNAc(b1-3)Gal(b1-4)GlcNAc(b1-2)[GlcNAc(b1-3)Gal(b1-4)GlcNAc(b1-3)Gal(b1-4)GlcNAc(b1-6)]Man(a1-6)[GlcNAc(b1-3)Gal(b1-4)GlcNAc(b1-3)Gal(b1-4)GlcNAc(b1-2)Man(a1-3)]Man(b1-4)GlcNAc(b1-4)[Fuc(a1-6)]GlcNAc
# Procedure, shortened: as §1
# [18] = target: GlcNAc(b1-3)Gal(b1-4)GlcNAc(b1-3)Gal(b1-4)GlcNAc(b1-3)Gal(b1-4)GlcNAc(b1-2)Man(a1-3)[GlcNAc(b1-3)Gal(b1-4)GlcNAc(b1-3)Gal(b1-4)GlcNAc(b1-3)Gal(b1-4)GlcNAc(b1-2)Man(a1-6)]Man(b1-4)GlcNAc(b1-4)GlcNAc
# Procedure, shortened: as §1
# [19] = target: GlcNAc(b1-3)Gal(b1-4)GlcNAc(b1-3)Gal(b1-4)GlcNAc(b1-3)Gal(b1-4)GlcNAc(b1-2)Man(a1-3)[GlcNAc(b1-3)Gal(b1-4)GlcNAc(b1-3)Gal(b1-4)GlcNAc(b1-3)Gal(b1-4)GlcNAc(b1-2)Man(a1-6)]Man(b1-4)GlcNAc(b1-4)[Fuc(a1-6)]GlcNAc
# Procedure, shortened: as §1
binder,measurement,setting,value
"HopZSSI-T (Helicobacter pylori), B5Z6D0 (protein) MGSSHHHHHHSSGLVPRGSHMENLYFQGEDNGFFISAGYQIGEAAQMVKNTGELKKLSDTYENLSNLLTNFNNLNQAVTNASSPSEINAAIDNLKANTQGLTGEKTNSPAYQAVYLALNAAVGLWNVIAYNVQCGPGNSSQQSVTFEGQPGHNSSSINCNLTGYNNGVSGPLSIDNFKQLNQAYQVLQQALKQGVPVLNNTNQKIEVKVTTQTNGQSSKETTTTTTTNDAQTLLQEASKMIDVLTTNCPWVNHNPGQNGGAPWGLIRQECVSGFATEFSAVTSMIKNAQEIVTQAQSLNANQNNQNAPQDFNPYTSADRAFAQNMLNHAQAQAKILELADQMKKDLNTIPSQFITNYLAACRIDGTTPSQGVTNNTWGAGCAYVEETITALNNSLAHFGTQAEQIKQSELLARTILDFRGSLSTLNSTYNSITTTASNTPNSPFLKNLISQSTNPNNPGGLQAVYQVNQSAYSQLLSATQELGHNPFRRIGLISSQT",glycan array binding signal (z-score),[1],-0.284
same,glycan array binding signal (z-score),[2],-0.83
same,glycan array binding signal (z-score),[3],-0.316
same,glycan array binding signal (z-score),[4],0.729
same,glycan array binding signal (z-score),[5],1.05
same,glycan array binding signal (z-score),[6],-0.424
same,glycan array binding signal (z-score),[7],0.472
same,glycan array binding signal (z-score),[8],-0.208
same,glycan array binding signal (z-score),[9],0.528
same,glycan array binding signal (z-score),[10],-0.706
same,glycan array binding signal (z-score),[11],-0.171
same,glycan array binding signal (z-score),[12],0.195
same,glycan array binding signal (z-score),[13],0.126
same,glycan array binding signal (z-score),[14],-0.437
same,glycan array binding signal (z-score),[15],1.48
same,glycan array binding signal (z-score),[16],0.471
same,glycan array binding signal (z-score),[17],-0.212
same,glycan array binding signal (z-score),[18],0.513
same,glycan array binding signal (z-score),[19],1.5

# Some of the entries so far, with tabs.
binder	measurement	setting	value
HopZSSI-T (Helicobacter pylori), B5Z6D0 (protein) MGSSHHHHHHSSGLVPRGSHMENLYFQGEDNGFFISAGYQIGEAAQMVKNTGELKKLSDTYENLSNLLTNFNNLNQAVTNASSPSEINAAIDNLKANTQGLTGEKTNSPAYQAVYLALNAAVGLWNVIAYNVQCGPGNSSQQSVTFEGQPGHNSSSINCNLTGYNNGVSGPLSIDNFKQLNQAYQVLQQALKQGVPVLNNTNQKIEVKVTTQTNGQSSKETTTTTTTNDAQTLLQEASKMIDVLTTNCPWVNHNPGQNGGAPWGLIRQECVSGFATEFSAVTSMIKNAQEIVTQAQSLNANQNNQNAPQDFNPYTSADRAFAQNMLNHAQAQAKILELADQMKKDLNTIPSQFITNYLAACRIDGTTPSQGVTNNTWGAGCAYVEETITALNNSLAHFGTQAEQIKQSELLARTILDFRGSLSTLNSTYNSITTTASNTPNSPFLKNLISQSTNPNNPGGLQAVYQVNQSAYSQLLSATQELGHNPFRRIGLISSQT	glycan array binding signal (z-score)	[10]	-0.706
same	glycan array binding signal (z-score)	[11]	-0.171
